Source: US12558430B2 (Eli Lilly and Company, priority 2020, dated 2026)
Non-standard residues stand in square brackets, D forms with d. Aib = CC(C)(N)C(=O)O

Assay: general procedure: Fmoc solid-phase peptide synthesis; Polystyrene Rink Amide AM LL resin (Novabiochem, 0.33 meq/g, 100-200 mesh); diisopropylcarbodiimide and Oxyma; PyAOP/DIEA for fatty acid-linker
Conditions: whole synthesis, analytical RP-HPLC, scale of the general procedure 0.13 mmol, TFA salt

Ac-ASHLSTAVLGKLS[Aib]ELHKLEDYPRTDVGAESP-NH2
final HPLC purity: >99.0%
